Experimental data: patent US20190144884A1 (University of Pennsylvania, published 2019)
No constants are given. Whether binding was seen depends on the method and setting. Some entries that bind do so weakly or less than the wild type.

Sequences of proteins named here, by UniProt entry; tags and fusion partners are left off. A change or cut given only in a name is not applied to a line headed by its entry. Residues count along the entry.
UniProt P07724, residues 25-608: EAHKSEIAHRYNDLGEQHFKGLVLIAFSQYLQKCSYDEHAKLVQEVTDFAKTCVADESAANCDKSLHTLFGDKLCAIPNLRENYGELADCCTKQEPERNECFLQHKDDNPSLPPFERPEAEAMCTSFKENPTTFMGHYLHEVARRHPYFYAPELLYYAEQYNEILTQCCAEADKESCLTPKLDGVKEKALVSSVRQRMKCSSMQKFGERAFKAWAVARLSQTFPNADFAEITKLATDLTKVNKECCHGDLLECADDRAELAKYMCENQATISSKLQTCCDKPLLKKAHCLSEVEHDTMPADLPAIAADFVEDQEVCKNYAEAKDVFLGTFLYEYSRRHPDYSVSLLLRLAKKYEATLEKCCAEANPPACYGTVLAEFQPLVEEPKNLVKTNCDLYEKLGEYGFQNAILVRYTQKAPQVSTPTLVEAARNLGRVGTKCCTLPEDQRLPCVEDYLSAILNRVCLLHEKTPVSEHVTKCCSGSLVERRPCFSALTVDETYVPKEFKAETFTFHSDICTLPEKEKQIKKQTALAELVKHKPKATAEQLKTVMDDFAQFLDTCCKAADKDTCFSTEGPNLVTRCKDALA
UniProt P06276: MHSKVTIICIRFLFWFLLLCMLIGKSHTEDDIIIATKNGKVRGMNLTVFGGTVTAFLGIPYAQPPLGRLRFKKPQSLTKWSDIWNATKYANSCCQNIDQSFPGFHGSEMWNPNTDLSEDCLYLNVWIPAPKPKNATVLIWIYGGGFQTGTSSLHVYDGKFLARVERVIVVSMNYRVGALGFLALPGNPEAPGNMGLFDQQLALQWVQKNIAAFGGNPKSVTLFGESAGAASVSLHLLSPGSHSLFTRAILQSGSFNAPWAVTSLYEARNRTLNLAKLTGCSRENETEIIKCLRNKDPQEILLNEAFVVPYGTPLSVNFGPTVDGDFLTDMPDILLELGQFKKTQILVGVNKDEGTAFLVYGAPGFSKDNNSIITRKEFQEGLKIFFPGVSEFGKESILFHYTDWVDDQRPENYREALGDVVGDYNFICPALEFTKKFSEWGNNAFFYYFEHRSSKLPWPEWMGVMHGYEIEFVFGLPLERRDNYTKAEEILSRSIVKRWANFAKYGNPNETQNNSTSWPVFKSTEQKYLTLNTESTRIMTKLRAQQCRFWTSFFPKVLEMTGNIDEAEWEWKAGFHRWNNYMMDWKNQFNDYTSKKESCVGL

Target: albumin (in serum of RAG KO mouse) (UniProt P07724)
Test: native gel, in-gel butyrylcholinesterase activity staining of mouse serum

Substance: human butyrylcholinesterase (hBChE) expressed from AAV8.UbC.hIL2.BChE C1.IRES.PRIMA1.SV40 vector (from UniProt P06276 27-602) (enzyme)
- binding: binds
